For assay [1], the target named is full-length human PRDM9 (B allele), C-terminally tagged with HA or V5 (human) (UniProt Q9NQV7). Nature of the assay: co-IP; HEK293T lysates treated with 125 U/ml benzonase and 2 mM MgCl2 for 1 hr at 4 °C (complete DNA digestion) before IP with anti-V5; western blot with anti-HA. On the technique in general: A western blot detects proteins with antibodies after separation by electrophoresis.

Amino acid sequences for entries named in this document (tags omitted).
UniProt Q9NQV7: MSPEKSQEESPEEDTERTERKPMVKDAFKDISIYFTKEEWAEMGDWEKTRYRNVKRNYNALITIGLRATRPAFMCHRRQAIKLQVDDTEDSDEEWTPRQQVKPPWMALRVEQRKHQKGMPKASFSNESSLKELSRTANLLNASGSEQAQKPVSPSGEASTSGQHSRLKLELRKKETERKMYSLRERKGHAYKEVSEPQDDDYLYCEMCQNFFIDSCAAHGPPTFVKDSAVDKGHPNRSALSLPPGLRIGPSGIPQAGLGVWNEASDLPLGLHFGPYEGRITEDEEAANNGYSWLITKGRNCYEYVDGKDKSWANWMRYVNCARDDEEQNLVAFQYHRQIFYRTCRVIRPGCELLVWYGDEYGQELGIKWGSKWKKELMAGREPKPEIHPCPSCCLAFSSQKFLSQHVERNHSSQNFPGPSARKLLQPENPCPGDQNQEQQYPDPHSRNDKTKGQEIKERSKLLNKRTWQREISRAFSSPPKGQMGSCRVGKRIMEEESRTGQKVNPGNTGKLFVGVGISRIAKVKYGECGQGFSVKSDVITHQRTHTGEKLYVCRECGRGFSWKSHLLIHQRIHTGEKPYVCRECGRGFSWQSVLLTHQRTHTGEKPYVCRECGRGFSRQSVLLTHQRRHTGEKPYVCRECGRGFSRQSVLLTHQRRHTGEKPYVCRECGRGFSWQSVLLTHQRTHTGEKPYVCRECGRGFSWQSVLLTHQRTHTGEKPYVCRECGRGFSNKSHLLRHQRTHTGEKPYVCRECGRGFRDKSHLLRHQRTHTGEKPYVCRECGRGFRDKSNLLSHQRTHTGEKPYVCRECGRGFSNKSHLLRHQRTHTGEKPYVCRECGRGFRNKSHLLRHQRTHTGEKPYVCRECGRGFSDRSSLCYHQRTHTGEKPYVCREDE

For assay [2] the target is unchanged. Nature of the assay: co-IP; HEK293T co-transfected with an HA-tagged and a V5-tagged construct; lysis in 1% Triton X-100, 150 mM NaCl, 50 mM Tris pH 8.0; IP with anti-HA or anti-V5 (IgG mock control), 4 °C; western blot against the other tag.

Results are given in words; binding and its absence hold for the method and conditions named. In cells and extracts the contact can be indirect. Some binding calls cover weakened binding; strength is not graded here.

Take “full-length human PRDM9 (B allele), C-terminally tagged with HA or V5 (from UniProt Q9NQV7 1-894)”: the binding entry in assay [1] and in assay [2] was “binds” in each case.
